Reference: patent EP1239867B1, “METHODS FOR TREATING AND PREVENTING DAMAGE TO MUCOSAL TISSUE” (University of Southern California, priority 1999, dated 2005)
Entries after “also recorded” stand apart in the source; their conditions may differ. At least one peptide structure holds a part that was inferred or is arguable (an end, a ring closure or a residue). Peptide text beside a SMILES is read from it.

Tests used:
[1] = test system: Female C57B1/6 mice; assay: Gastrointestinal mucositis induced by cyclophosphamide injection into mice, blinded histological scoring of intestine samples; assay type: in vivo; conditions: versus saline
[2] = test system: patients with newly diagnosed breast cancer; assay: Phase I/II dose escalation study: incidents of stomatitis (adverse events, WHO toxicity criteria) associated with chemotherapy; assay type: in vivo
[3] = Unspecified activity test of AII fragments (no method given); conditions: test not specified

Structure (SMILES)	level of gastrointestinal mucositis by all histological scores (in words) [1]	reduction of the frequency of stomatitis relative to that observed with filgrastim treatment ([2]; chemotherapy patients, subcutaneous AII(1-7))	Stomatitis (incidents of stomatitis associated with chemotherapy) ([2]; doxorubicin 60 mg/m^2 and cyclophosphamide 600 mg/m^2, once daily subcutaneous, AII(1-7) n=14 (2.5-100.0 µg/kg/day), filgrastim n=5 (5.0 µg/kg/day), historic 88%)	stomatitis in chemotherapy patients relative to control (in words) ([2]; subcutaneous administration)	effectiveness (in words) [3]
CC[C@H](C)[C@H](NC(=O)[C@H](Cc1ccc(O)cc1)NC(=O)[C@@H](NC(=O)[C@H](CCCNC(=N)N)NC(=O)[C@@H](N)CC(=O)O)C(C)C)C(=O)N[C@@H](Cc1c[nH]cn1)C(=O)N1CCC[C@H]1C(=O)O [AII(1-7), Asp-Arg-Val-Tyr-Ile-His-Pro]	reduced the level of gastrointestinal mucositis	30%	40%	shown to be reduced; also recorded: significantly decreased stomatitis	–
N[C@@H](Cc1c[nH]cn1)C(=O)N1CCC[C@H]1C(=O)N[C@@H](Cc1ccccc1)C(=O)O [AII(6-8), His-Pro-Phe] (H-His-Pro-Phe-OH)	–	–	–	–	not to be effective
